PubChem BioAssay AID1671195 | Yale University – 2021

Screen: 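Genes whose knockdown alters LDL uptake in liver cancer cells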 (primary screen)
Cell system: human Huh7 hepatoma cells
Reagents: siRNA pool against human genes, 18 nM
Duration: about 2 to 2.5 days of knockdown, then 8 h LDL uptake
Treatment: DiI-labelled LDL at 30 µg/ml for 8 h, in lipoprotein-deficient serum medium
Measured: 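Fluorescent LDL signal imaged in cells, scaled to the plate median, robust z-score for each replicate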
Scale: robust z-score: higher = more LDL uptake after knockdown
Rule for the call: 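Active when two or more replicates show a robust z-score above 2 or below -2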
The deposit covers about 22,000 reagents; shown is a random part of them. About 1,510 of them (6.9%) were called active. 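Active includes knockdowns raising or lowering LDL uptake; positive z-scores mean more uptake, negative mean less.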 Reagents against one gene are numbered here.

C1orf52 (chromosome 1 open reading frame 52)
- robust z-score, replicate 1: -0.634
- robust z-score, replicate 2: 0.461
- robust z-score, replicate 3: -0.657
- Outcome: inactive

TMEM258 (transmembrane protein 258)
- robust z-score, replicate 1: -0.661
- robust z-score, replicate 2: 0.27
- robust z-score, replicate 3: -0.683
- Outcome: inactive

TCF3 (transcription factor 3)
- robust z-score, replicate 1: 1.51
- robust z-score, replicate 2: 1.36
- robust z-score, replicate 3: 2.6
- Outcome: inactive

LINC01141 (long independently transcribed non-coding RNA 1141)
- robust z-score, replicate 1: 0.138
- robust z-score, replicate 2: 0
- robust z-score, replicate 3: 0.351
- Outcome: inactive

FLJ34223 (retired record)
- robust z-score, replicate 1: 1.46
- robust z-score, replicate 2: 1.14
- robust z-score, replicate 3: 1.3
- Outcome: inactive

S1PR3 (sphingosine-1-phosphate receptor 3) #1
- robust z-score, replicate 1: 0.208
- robust z-score, replicate 2: 0.254
- robust z-score, replicate 3: 0.0196
- Outcome: inactive

S1PR3 (sphingosine-1-phosphate receptor 3) #2
- robust z-score, replicate 1: -0.61
- robust z-score, replicate 2: -0.131
- robust z-score, replicate 3: -0.322
- Outcome: inactive

TNP2 (transition protein 2)
- robust z-score, replicate 1: -1.45
- robust z-score, replicate 2: -1.79
- robust z-score, replicate 3: -1.32
- Outcome: inactive

TOPORS
- robust z-score, replicate 1: 1.1
- robust z-score, replicate 2: 1.77
- robust z-score, replicate 3: 0.361
- Outcome: inactive

TBC1D3P2 (TBC1 domain family member 3 pseudogene 2)
- robust z-score, replicate 1: 0.0663
- robust z-score, replicate 2: -0.0693
- robust z-score, replicate 3: -0.42
- Outcome: inactive

ZNF189 (zinc finger protein 189)
- robust z-score, replicate 1: -1.84
- robust z-score, replicate 2: -1.46
- robust z-score, replicate 3: -2.02
- Outcome: inactive

RRN3P1 (RRN3 pseudogene 1)
- robust z-score, replicate 1: 0.0329
- robust z-score, replicate 2: 0.318
- robust z-score, replicate 3: 0.782
- Outcome: inactive

LOC339162 (retired record)
- robust z-score, replicate 1: 0.445
- robust z-score, replicate 2: 0.647
- robust z-score, replicate 3: 0.654
- Outcome: inactive

ICAM5 (intercellular adhesion molecule 5)
- robust z-score, replicate 1: 0.842
- robust z-score, replicate 2: -0.589
- robust z-score, replicate 3: -0.516
- Outcome: inactive

FTO (FTO alpha-ketoglutarate dependent dioxygenase)
- robust z-score, replicate 1: 0.421
- robust z-score, replicate 2: 0.146
- robust z-score, replicate 3: 0.00228
- Outcome: inactive

TSPAN3 (tetraspanin 3)
- robust z-score, replicate 1: -0.0949
- robust z-score, replicate 2: -0.629
- robust z-score, replicate 3: -0.515
- Outcome: inactive

TICAM2 (TIR domain containing adaptor molecule 2)
- robust z-score, replicate 1: -0.568
- robust z-score, replicate 2: -0.0147
- robust z-score, replicate 3: -0.219
- Outcome: inactive

CEBPE (CCAAT enhancer binding protein epsilon)
- robust z-score, replicate 1: 1.31
- robust z-score, replicate 2: 0.745
- robust z-score, replicate 3: 4.47
- Outcome: inactive

CHRD (chordin)
- robust z-score, replicate 1: 1.51
- robust z-score, replicate 2: -0.0377
- robust z-score, replicate 3: 0.616
- Outcome: inactive

CRBN (cereblon)
- robust z-score, replicate 1: 0.578
- robust z-score, replicate 2: 1.67
- robust z-score, replicate 3: 0.907
- Outcome: inactive

LINC00923 (long independently transcribed non-coding RNA 923)
- robust z-score, replicate 1: -1.3
- robust z-score, replicate 2: -0.557
- robust z-score, replicate 3: -0.501
- Outcome: inactive

ZNF771 (zinc finger protein 771)
- robust z-score, replicate 1: -0.143
- robust z-score, replicate 2: -1.06
- robust z-score, replicate 3: 0.492
- Outcome: inactive

FAM204A (family with sequence similarity 204 member A)
- robust z-score, replicate 1: 4.5
- robust z-score, replicate 2: 2.84
- robust z-score, replicate 3: 1.65
- Outcome: active

COQ8A (coenzyme Q8A)
- robust z-score, replicate 1: -0.475
- robust z-score, replicate 2: -0.762
- robust z-score, replicate 3: -0.552
- Outcome: inactive

A portion taken from the entries so far, as a working copy:
FTO (FTO alpha-ketoglutarate dependent dioxygenase)
- robust z-score, replicate 1: 0.421
- robust z-score, replicate 2: 0.146
- robust z-score, replicate 3: 0.00228
- Outcome: inactive

TSPAN3 (tetraspanin 3)
- robust z-score, replicate 1: -0.0949
- robust z-score, replicate 2: -0.629
- robust z-score, replicate 3: -0.515
- Outcome: inactive
